PubChem BioAssay AID1259425, University of Nebraska Medical Center, 2018

Assay: 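Compare each knockdown with KSR1 silencing using changes in marker transcripts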 (primary screen)
System: HCT116 human colon cancer cells
Knock-down reagent: siRNA pool against human genes, 50 nM siRNA
Measured: 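After 50 nM siRNA pool, branched-DNA assay measures six marker transcripts per well, minus blank, normalised to the geometric mean of two housekeeping transcripts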
Scale: BNIP3L mRNA: higher = more BNIP3L transcript after knockdown
In all, the deposit lists about 14,000 reagents; shown is a part drawn at random. Further read-outs or replicates are left out here. No sequences are given here. Not given: the time to read-out.

After knock-down of HNRNPK (heterogeneous nuclear ribonucleoprotein K), the record shows BNIP3L mRNA, set 1 = 0.139.
With knock-down of NPAS4 (neuronal PAS domain protein 4), the screen gave BNIP3L mRNA, set 1 = 0.0915.
Silencing of GUCA1C (guanylate cyclase activator 1C) came out at: BNIP3L mRNA, set 1 = 0.11.
For TRAF4 (TNF receptor associated factor 4), the values are BNIP3L mRNA, set 1 = 0.0734.
For NME7 (NME/NM23 family member 7) the deposit lists BNIP3L mRNA, set 1 = 0.155.
After knock-down of SEC61G (SEC61 translocon subunit gamma), the screen gave BNIP3L mRNA, set 1 = 0.141.
For BPIFA1 (BPI fold containing family A member 1), the values are BNIP3L mRNA, set 1 = 0.0864.
Silencing of LIMS2 (LIM zinc finger domain containing 2) gave: BNIP3L mRNA, set 1 = 0.0408.
EVPL (envoplakin) gave BNIP3L mRNA, set 1 = 0.0797.
With knock-down of FZD5 (frizzled class receptor 5) the results were BNIP3L mRNA, set 1 = 0.184.
For PIAS3 (protein inhibitor of activated STAT 3), the values are BNIP3L mRNA, set 1 = 0.0927.
After knock-down of PCDHGA11 (protocadherin gamma subfamily A, 11), the screen gave BNIP3L mRNA, set 1 = 0.0614.
Silencing of FGF2 (fibroblast growth factor 2) came out at: BNIP3L mRNA, set 1 = 0.11.
For CACNA2D1, the values are BNIP3L mRNA, set 1 = 0.102.
Knock-down of ALPI (alkaline phosphatase, intestinal) gave: BNIP3L mRNA, set 1 = 0.0722.
Knock-down of SLC22A13 resulted in: BNIP3L mRNA, set 1 = 0.168.
For GABBR2 (gamma-aminobutyric acid type B receptor subunit 2) the deposit lists BNIP3L mRNA, set 1 = 0.208.
After knock-down of IMMT (inner membrane mitochondrial protein) the results were BNIP3L mRNA, set 1 = 0.14.
Depletion of CACNG8 (calcium voltage-gated channel auxiliary subunit gamma 8) gave: BNIP3L mRNA, set 1 = 0.196.
Depletion of RNF112 (ring finger protein 112) gave: BNIP3L mRNA, set 1 = 0.235.
FAM178B (family with sequence similarity 178 member B) gave BNIP3L mRNA, set 1 = 0.176.
Silencing of FAM3C (FAM3 metabolism regulating signaling molecule C) gave: BNIP3L mRNA, set 1 = 0.159.
MPDZ (multiple PDZ domain crumbs cell polarity complex component) gave BNIP3L mRNA, set 1 = 0.0343.
After knock-down of TRA2B (transformer 2 beta homolog), the screen gave BNIP3L mRNA, set 1 = 0.162.
With knock-down of CACNB1 (calcium voltage-gated channel auxiliary subunit beta 1) the results were BNIP3L mRNA, set 1 = 0.136.
For MADCAM1 (mucosal vascular addressin cell adhesion molecule 1), the entry reads BNIP3L mRNA, set 1 = 0.189.
LIM2 (lens intrinsic membrane protein 2) gave BNIP3L mRNA, set 1 = 0.193.
After knock-down of IBSP (integrin binding sialoprotein), the screen gave BNIP3L mRNA, set 1 = 0.174.

3 neighbouring reagents from above, for reference:
PCDHGA11 (protocadherin gamma subfamily A, 11) → BNIP3L mRNA, set 1 = 0.0614
FGF2 (fibroblast growth factor 2) → BNIP3L mRNA, set 1 = 0.11
CACNA2D1 → BNIP3L mRNA, set 1 = 0.102
